At least one structure is not confirmed: it was looked up by name or label, or the drawing left a doubt.
Experiments:
PC3 cells = assay: Epifluorescent microscopy of DSR-PL binding to pre-targeted PC3 cells; type: cell-based, human; conditions: 10 μg/ml for 1 hr at 4° C., then DSR-PL
anti-Bombesin antibody = assay: ELISA for bispecificity using anti-Bombesin capture antibody and DTPA-HRP; type: binding; conditions: 1 μg/ml, captured by anti-Bombesin antibody
Description: Intact 6C31H3 anti-DTPA antibody was modified with 100× molar excess iminothiolane. Bombesin was modified with 24× molar excess N-hydroxy-succinimide ester of bromoacetic acid (as described in Varvarigou et al., Can. Biother. Radiopharm. 19:219-229 (2004); and Bernatowicz et al., Anal. Biochem. 155:95-102 (1986)). […] The antibody activity and Bombesin concentrations were assessed by ELISA using either DTPA-BSA or anti-Bombesin antibody and compared to standard curves. Specifically, the Bombesin concentration of serial dilutions of Bom-BiSpCx starting at 1 μg/ml was determined by ELISA using Bombesin (1 μg/ml) and 6C31H3 antibody (1 μg/ml) as controls. Bombesin of the Bom-BiSpCx (1 μg/ml) was captured by an anti-Bombesin antibody, resulting in a positive reaction with DTPA-HRP (which is specific for the […] antibody of the Bom-BiSpCx).

CSCC[C@H](NC(=O)[C@H](CC(C)C)NC(=O)[C@H](Cc1cnc[nH]1)NC(=O)CNC(=O)[C@@H](NC(=O)[C@H](C)NC(=O)[C@H](Cc1c[nH]c2ccccc12)NC(=O)[C@H](CCC(N)=O)NC(=O)[C@H](CC(N)=O)NC(=O)CNC(=O)[C@H](CC(C)C)NC(=O)[C@H](CCCN=C(N)N)NC(=O)[C@H](CCC(N)=O)NC(=O)[C@@H]1CCC(=O)N1)C(C)C)C(N)=O [Bombesin]
Intensity of DSR-PL signal (mean pixel density, background subtracted) (PC3 cells): 3.652+/−0.974 | Reaction with DTPA-HRP, O.D. 490 nm (anti-Bombesin antibody): 0.001±0.00172
